# Test results published in article PMC6859486.
# Amino acid sequences for entries named in this document (tags omitted). Residues count along the entry.
# UniProt Q8R035, residues 30-206: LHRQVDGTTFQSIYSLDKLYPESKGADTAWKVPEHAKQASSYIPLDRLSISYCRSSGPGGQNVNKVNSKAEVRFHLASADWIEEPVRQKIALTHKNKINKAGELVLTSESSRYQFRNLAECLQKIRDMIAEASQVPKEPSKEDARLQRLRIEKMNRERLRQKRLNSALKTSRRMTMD
# UniProt Q8C2E4: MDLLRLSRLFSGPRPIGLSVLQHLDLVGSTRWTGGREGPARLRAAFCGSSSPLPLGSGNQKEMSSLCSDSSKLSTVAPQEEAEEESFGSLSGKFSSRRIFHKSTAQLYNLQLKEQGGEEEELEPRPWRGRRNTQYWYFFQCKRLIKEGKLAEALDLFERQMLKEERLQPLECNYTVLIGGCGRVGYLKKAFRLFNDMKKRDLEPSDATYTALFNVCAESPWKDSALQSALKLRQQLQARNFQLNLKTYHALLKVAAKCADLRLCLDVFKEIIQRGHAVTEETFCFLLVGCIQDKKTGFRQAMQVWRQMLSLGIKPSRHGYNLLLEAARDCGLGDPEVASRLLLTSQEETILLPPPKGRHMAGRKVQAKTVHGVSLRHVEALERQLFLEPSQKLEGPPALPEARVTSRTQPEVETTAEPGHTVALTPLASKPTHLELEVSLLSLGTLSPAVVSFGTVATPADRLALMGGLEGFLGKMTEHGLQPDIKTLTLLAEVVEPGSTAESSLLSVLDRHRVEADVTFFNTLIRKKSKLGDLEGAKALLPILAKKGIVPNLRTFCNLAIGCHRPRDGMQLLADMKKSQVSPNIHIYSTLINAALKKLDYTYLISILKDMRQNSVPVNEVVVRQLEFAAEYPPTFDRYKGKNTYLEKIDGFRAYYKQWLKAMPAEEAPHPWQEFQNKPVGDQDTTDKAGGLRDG
# UniProt P0DN34: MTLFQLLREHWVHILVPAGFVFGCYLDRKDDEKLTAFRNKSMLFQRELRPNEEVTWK
# UniProt Q9ERU3: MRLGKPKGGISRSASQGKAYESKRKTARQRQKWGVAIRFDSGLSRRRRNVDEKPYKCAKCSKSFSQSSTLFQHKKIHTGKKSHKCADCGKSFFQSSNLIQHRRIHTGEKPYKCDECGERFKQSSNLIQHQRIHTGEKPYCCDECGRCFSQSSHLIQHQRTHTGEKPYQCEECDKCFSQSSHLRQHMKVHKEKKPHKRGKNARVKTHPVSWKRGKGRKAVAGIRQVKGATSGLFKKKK
# UniProt Q8C167: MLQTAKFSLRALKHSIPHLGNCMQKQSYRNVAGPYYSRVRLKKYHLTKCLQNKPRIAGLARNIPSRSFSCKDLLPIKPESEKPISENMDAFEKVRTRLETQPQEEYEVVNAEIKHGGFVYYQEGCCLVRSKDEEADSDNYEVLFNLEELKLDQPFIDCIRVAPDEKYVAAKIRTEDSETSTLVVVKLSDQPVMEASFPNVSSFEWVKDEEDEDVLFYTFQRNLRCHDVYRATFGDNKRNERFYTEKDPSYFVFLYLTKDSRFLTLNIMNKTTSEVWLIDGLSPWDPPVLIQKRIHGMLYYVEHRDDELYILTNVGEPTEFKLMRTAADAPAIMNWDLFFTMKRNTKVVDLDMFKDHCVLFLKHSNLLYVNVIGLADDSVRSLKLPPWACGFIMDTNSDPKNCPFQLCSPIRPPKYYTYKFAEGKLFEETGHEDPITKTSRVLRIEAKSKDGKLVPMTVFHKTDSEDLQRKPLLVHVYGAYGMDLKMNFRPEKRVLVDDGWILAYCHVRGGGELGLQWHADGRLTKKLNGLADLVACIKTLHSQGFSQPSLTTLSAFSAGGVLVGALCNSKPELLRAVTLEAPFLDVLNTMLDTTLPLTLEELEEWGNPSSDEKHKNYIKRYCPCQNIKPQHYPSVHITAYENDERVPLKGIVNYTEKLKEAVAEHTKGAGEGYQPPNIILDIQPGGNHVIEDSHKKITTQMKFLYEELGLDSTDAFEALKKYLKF
# Target: mL62-FLAG (mouse) (UniProt Q8R035)
# Assay: affinity purification with mass spectrometry; mL62-FLAG co-immunoprecipitated on anti-FLAG M2 beads from 1% digitonin lysates of heart, liver and kidney mitochondria of MitoRibo-Tag mice, WT mice as control; 10 mM Tris-HCl pH 7.5, 100 mM KCl, 20 mM MgCl2; on-bead trypsin elution; LFQ-MS/MS
row,Molecule,binding
1,pentatricopeptide repeat-containing protein 1 (from UniProt Q8C2E4 1-695),binds
2,NDUFB1 (from UniProt P0DN34 1-57),binds
3,"cytochrome c oxidase assembly factor TMEM177 (protein, UniProt Q8BPE4 1-311) MAGPLWRAAAFIQRHRTSLLVGSCAGLFGVQISFHLFPDPIVQWLYQYWPQGQPAPLSPHLWSLFQEVLKDIGVPSGHCYKPFTAFTFQPVSAGFPRLPAGAVVGIPAIFLGGPVTNIEHSVIIHGQRVDWQSPAGTRLRDALTMSHNAQKFALAKEVVYLESGVAALQTLPAPACLAGTWAISVGAKHALGLYGGPMSLRTAFNLVAIVVGYVAYTFSKDSLTLALEGWLDRRTASLSAAYVQGGVEFYEKILSGNLALRSLLGRQGEKLYTPSGNIVPRHWFRINHLPYTTRRDSLQQMWRATVSPGRF",binds
4,"NDUFAF4 (protein, UniProt Q9D1H6 1-173) MGARVTRALRNFNVEKRAEREISKRKPSMAPKHPSTRDLLQEHRSQYPEIEEVVSKKDNKLLSLLRDVYVDSKDPVPALPVKVEPRQEPKEFRLPIGNHFDKNITDIPKGKITVVEALTLLNNHKLSPETWTAEKIAQEYYLELKDVNSLLKYFVTFEVKILPPEDRKAIQSK",binds
5,"cytochrome c oxidase assembly factor COA3 (protein, UniProt Q9D2R6 1-108) MAAPGAGDPLNAKNGNAPFAQRIDPSREKLTPAQLQFMRQVQLAQWQKTLPQRRTRNIMTGLGIGALVLAIYGYTFYSVAQERFLDELEDEAKAARARALERERASGP",binds
6,"nitric oxide-associated protein 1 (mouse, endogenous) (protein, UniProt Q9JJG9 1-693) MLPARLACGLLCGLRRGPAPAAACYGPARWLLEGKCEVPIRQRASSLGRRVPPSSTATEDYAEGPDTEERFLFPEYVPERTPEEQVRELQELRELQQLQQEKERERLQQREERLQQKLRAGFRTLPVPEFPDASVPPSGIYCSGCGAELHCQHPGLPGYLPEEKFRDAAQAEGGPARTVCQRCWLLVHHGRALRLQVSRDQYLELVSAALRRPGPALVLYMVNLLDLPDALLPDLPKLVGPKQLIVLGNKVDLLPQDAPGYLKRLRKRLWDDCIRAGLVVAPGHQGPQYPAGDEPLEEIKNQNPSSRSRTVVKDVRLISAKTGYGVEEMISALQRSWRYRGDVYLVGTTNAGKSTLFNTLLESDYCTAKGSEAIDRATISPWPGTTLNLLKFPICNPTPYRMFKRQRRLQEDATKAEEDLSEEEQSQLNQLKKHGYIVGRVGRTFSYSREQDEVPFEFDADSLAFDMGSEPVVSVCKSTKQIELTPEDVKDAHWFYDTPGITKESCILNLLTEKEINTVLPTHSIIPRTFVLKPGMVLFLGGIARIDFLQGNQSAWFTVVASNFLPVHITSLDKADALYEKHAGHELLLVPMGGKERMAQFPPLVAEDITLKGGGKFEAVADIKFSSAGWVAVTPYSEGTLHLRGHTPEGTALTVHPPVLPYIVNVKGQRMKKSVAYKTKKPPSLVHNLKKHR",binds
7,"cytochrome c oxidase assembly factor COX18 (protein, UniProt Q8VC74 64-331) AEEVLLGAQEATGLPWWSNIILSTVALRGAVTLPLAAYQHYILAKVENLQPEIKDIAKRLNQEVAVCARQFGWSKRVARLTYLKNMRRLISELYVRDNCHPFKATVLVWVQLPMWVFISVALRNLSTGATHSDGISVQEQLAAGGTLWFPDLTAVDSTWILPVSVGVVNLLIVEIFALQKIGTSRFQMYVTNFVRAVSVLMIPVAATVPSALVLYWLCSSLMGLAQNLLLRSPGFRQLCRIPPSKSDSETPYRDLSAAFCAKFLSRKR",binds
8,"G-rich RNA sequence binding factor 1 (protein, UniProt Q8C5Q4 117-479) SQESKTTYLEDLPPLPEYELSPSKLGDEVDDVYLIRAQGLPWSCTVEDVLNFFSDCRIRNSENGIHFLLNRDGKRRGDALIEMESEQDVQKALEKHRMYMGQRYVEVYEINNEDVDALMKSLQVKPSPVLSDGVVRLRGLPYSCNEKDIVDFFAGLNIVDITFVMDYRGRRKTGEAYVQFEEPEMANQALLKHREEIGNRYIEIFPSRRNEVRTHVGSHKGKKMTSSPPTKYITEPEVVFEEHEVNEDIRPMTAFESDKEIELPKEMSEKLPEAVDFGTLPSLHFVHMRGLPFQANAQDIINFFAPLKPVRITMEYSSSGKATGEADVHFDTHEDAVAAMLKDRSHVQHRYIELFLNSCPKGK",binds
9,"complex I assembly factor TIMMDC1 (protein, UniProt Q8BUY5 1-285) MGAPPPAPRSRLCGAWGPFPRVFAAGAVAADSPGFVEDREQRSGVSDPGSLESGWDRLRQLFAKDEQQRFSKEIDYIYRAAVSAGIIGWAYGGIPAFIYAKKRYIEQSQAEIYHNRFDAVQSAHRAATRGFIRYGWRWSWRTAVFVTIFNTVNTGLTVYRNKDAMSHFAIAGAVTGGLFRINLGVRGLVAGSIIGALLGAPMGSLLMALEKYSGETVQERRQKEWKALHEQRLEEWRSSLQVTELLPMEIESGLEKIQPEGDAQRIEELLSLPRNPSSPHQQSKH",binds

# Next, values leading:
row,binding,Molecule
1,binds,zinc finger protein 22 (from UniProt Q9ERU3 1-237)
2,binds,prolyl endopeptidase-like protein (from UniProt Q8C167 1-725)
3,binds,"retinol dehydrogenase 13 (protein, UniProt Q8CEE7 1-334) MSRFLLPVSVVGTVIGGTVLLKDYVAGGACPSKATIPGKTVIVTGANTGIGKQTALELAKRGGNVILACRDMEKCEVAAKDIRGETLNPRVRAERLDLASLKSIREFARKVIKEEERVDILVNNAAVMRCPHWTTEDGFEMQFGVNYLGHFLLTNLLLDKLKASAPSRIINLSSLAHVAGHIDFEDLNWQMKKYDTKAAYCQSKLAVVLFTKELSHRLQGSGVTVNALHPGVARTELGRHTGMHNSAFSGFMLGPFFWLLFKSPQLAAQPSTYLAVAEELENVSGKYFDGLREKAPSPEAEDEEVARRLWTESARLVGLAMAHGSPGRGHAIPR"
4,binds,"neugrin (protein, UniProt Q99KS2 19-293) RCGFASQVMAGPGSVSCEPDPDSDWEPEERELQEVESALKRQKKAMRFQKIRRQMEAPGAPPRTLTWEAMEQIRYLHKEFAESWSVPRLAEGFDVSTDVIRRVLKSKFVPTLEQKLRQDQKVLKKAGFTREIGQLPVSEDTLKALSAGRSVSGLLMAGDEVSSKSQNHSTALKVAKSHPHSTDAQKKREGRDKRIQVLEESLVPATTALGHQRELQKSATSDSEATGRAGSDTLPSAVLLEELKPGEPGDQSFSSKVVQRGHDFFDSNGNFLYRI"
5,binds,"cytochrome c oxidase assembly factor COX20 (protein, UniProt Q9D7J4 1-117) MAAAPEPHETEKKPFKLLGILDVENTPCARESILYGSLGSIVTGLGHFLVTSRIRRSCDVGVGGFILVTLGCWFHCRYNFAKQRIQERIAREGIKNKILYESTHLDPERKMKTNNSS"
6,binds,"mitochondrial translation initiation factor IF3mt (protein, UniProt Q9CZD5 95-276) GMMHRADVIRLMNKQDLRLVQRNTSSEPPEYQLMTGEQIHQERLKLREQEKAKPKTGPTMTKELVFSSNIGQHDLDTKSKQIQQWIEKKYHVQVTIKRRKDAEQSEEETEEIFNQILQTMPDIATFSSRPKAIRGGTASMCVFRHLSKKEEKAYRESQESQRRDTLSKDDDGNSKESDVVCQ"
7,binds,"small integral membrane protein 4 (protein, UniProt Q8C1Q6 1-80) MFSRAQVRRALQRVPGKQRFGIYRFLPFFFVLGGAMEWIMIKVRVGQETFYDVYRRKASERQYQRRLEDTSETNLHKLIK"
8,binds,"OCIAD1 (protein, UniProt Q9CRD0 1-247) MNGRADFREPNAQVSRPIPDIGGGYIPTEEEWRLFAECHEECFWFRSVPLAATSMLITQGLISKGILSSHPKYGSIPKLLFACIVGYFAGKLSYVKTCQEKFKKLENSPLGEALRSGELRRSSPPGHYTQKPKFDSNVSGQSSFGTSPAADNIEKEALPRYEPIPFSASMNESTPTGITDHIAQGPEPNLEESPKRKGVTYEELRSKNRESYGVTLPHKTDPSVRPMQERVPKKEVKVNKYGDTWDE"

# No constants are given. Whether binding was seen depends on the method and setting. Binding seen in cells or lysates may run through a third protein. A yes stands for co-enrichment or nearness to the bait. Other partners may have been found.
